Results as given in article doi:10.1101/2024.06.14.598964.
Where two headings read alike, the source gives them in different places. These are yes or no findings as the source states them, for the method shown. In cells and extracts the contact can be indirect. Some entries that bind do so weakly or less than the wild type. For some assays here: Tags and fused reporters may be left off the sequences shown.

By UniProt entry, the sequences of proteins in these tests, tags left out.
UniProt Q9UHY1: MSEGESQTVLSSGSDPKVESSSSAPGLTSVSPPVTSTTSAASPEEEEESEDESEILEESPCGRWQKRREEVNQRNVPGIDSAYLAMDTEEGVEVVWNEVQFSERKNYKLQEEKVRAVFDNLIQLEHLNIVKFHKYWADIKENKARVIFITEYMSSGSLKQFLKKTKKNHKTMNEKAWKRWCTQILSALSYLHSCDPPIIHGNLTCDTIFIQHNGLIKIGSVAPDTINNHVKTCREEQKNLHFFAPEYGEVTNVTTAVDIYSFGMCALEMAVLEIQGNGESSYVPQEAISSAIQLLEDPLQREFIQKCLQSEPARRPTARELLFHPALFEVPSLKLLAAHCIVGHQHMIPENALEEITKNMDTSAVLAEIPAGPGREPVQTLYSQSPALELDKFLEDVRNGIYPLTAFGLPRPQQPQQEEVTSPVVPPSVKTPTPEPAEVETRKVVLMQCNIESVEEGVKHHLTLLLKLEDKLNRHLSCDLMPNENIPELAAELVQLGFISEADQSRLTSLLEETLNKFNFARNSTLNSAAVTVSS
UniProt Q9UN81: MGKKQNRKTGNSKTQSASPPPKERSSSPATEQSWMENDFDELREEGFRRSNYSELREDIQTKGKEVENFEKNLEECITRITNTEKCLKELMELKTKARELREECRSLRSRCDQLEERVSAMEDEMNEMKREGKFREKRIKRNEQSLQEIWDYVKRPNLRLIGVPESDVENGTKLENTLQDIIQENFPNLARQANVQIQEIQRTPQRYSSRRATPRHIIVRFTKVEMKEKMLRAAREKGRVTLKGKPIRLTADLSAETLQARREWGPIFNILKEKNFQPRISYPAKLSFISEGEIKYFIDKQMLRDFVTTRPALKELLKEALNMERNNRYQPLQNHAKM
UniProt P67809: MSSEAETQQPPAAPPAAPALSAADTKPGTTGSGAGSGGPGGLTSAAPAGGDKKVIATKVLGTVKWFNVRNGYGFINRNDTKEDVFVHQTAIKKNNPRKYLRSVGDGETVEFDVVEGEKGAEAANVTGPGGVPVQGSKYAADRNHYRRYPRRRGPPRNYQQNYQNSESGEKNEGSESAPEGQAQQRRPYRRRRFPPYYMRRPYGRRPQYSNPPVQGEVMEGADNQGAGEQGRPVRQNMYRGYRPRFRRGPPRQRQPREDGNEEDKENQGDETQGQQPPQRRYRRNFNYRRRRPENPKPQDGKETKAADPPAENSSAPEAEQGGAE
UniProt Q13283: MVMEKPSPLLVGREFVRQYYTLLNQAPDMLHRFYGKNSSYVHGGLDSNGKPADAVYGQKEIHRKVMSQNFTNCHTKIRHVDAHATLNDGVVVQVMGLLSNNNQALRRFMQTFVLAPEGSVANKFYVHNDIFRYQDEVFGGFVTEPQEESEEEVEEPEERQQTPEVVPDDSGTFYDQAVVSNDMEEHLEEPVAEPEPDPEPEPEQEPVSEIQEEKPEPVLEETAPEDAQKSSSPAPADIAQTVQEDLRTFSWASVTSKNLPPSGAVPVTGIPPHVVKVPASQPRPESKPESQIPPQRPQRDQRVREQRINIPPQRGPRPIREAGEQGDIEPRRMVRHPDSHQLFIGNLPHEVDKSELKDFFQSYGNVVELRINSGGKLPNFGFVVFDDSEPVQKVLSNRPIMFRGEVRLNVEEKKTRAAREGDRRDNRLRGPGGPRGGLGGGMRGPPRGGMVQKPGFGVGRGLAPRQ

T1: Myc-Flag-NRBP2 expressed in MCF-7 cells (human) (UniProt Q9NSY0)
T1 sequence: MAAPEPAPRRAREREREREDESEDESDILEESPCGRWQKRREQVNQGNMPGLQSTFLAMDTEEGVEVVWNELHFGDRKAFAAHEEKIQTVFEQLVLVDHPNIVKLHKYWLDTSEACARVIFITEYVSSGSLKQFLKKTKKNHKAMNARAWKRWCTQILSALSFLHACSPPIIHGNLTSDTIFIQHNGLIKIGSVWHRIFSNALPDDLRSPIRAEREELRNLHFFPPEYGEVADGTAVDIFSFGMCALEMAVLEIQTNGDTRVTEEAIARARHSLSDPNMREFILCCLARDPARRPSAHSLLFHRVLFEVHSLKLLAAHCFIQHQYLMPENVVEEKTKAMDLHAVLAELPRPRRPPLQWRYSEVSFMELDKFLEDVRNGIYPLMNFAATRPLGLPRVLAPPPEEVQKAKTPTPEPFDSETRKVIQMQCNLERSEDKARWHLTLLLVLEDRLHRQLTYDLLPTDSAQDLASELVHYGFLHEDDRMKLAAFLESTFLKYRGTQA

T2: Myc-Flag-NRBP2 expressed in HEK293T cells (human) (UniProt Q9NSY0)
T2 sequence: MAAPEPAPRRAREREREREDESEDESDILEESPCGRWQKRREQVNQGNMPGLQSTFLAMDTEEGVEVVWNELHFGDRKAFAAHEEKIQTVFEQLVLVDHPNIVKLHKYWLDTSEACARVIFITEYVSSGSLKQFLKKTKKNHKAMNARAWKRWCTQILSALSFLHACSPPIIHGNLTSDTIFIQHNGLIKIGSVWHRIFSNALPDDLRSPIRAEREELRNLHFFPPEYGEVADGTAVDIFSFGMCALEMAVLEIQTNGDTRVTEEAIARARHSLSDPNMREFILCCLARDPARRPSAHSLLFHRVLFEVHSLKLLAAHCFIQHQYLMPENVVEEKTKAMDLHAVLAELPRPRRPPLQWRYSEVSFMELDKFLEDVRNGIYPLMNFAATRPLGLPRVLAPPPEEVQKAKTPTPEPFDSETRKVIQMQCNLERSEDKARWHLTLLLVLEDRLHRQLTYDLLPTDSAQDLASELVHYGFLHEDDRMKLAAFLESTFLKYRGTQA


How the values were obtained:
Assay in all cases: co-IP
[1] = molecular target: Myc-Flag-NRBP1 expressed in MCF-7 cells (human) (UniProt Q9UHY1)
[2] = molecular target: T1, Myc-Flag-NRBP2 expressed in MCF-7 cells (human)
[3] = molecular target: Myc-Flag-NRBP1 expressed in HEK293T cells (human) (UniProt Q9UHY1)
[4] = molecular target: T2, Myc-Flag-NRBP2 expressed in HEK293T cells (human)
[5] = molecular target: Myc-Flag-NRBP1 expressed in HEK293T cells (human) (UniProt Q9UHY1); remark: listed apart in the source
[6] = molecular target: T2, Myc-Flag-NRBP2 expressed in HEK293T cells (human); remark: listed apart in the source
[7] = molecular target: NRBP1-Flag (full-length NRBP1) expressed in HEK293T cells (human) (UniProt Q9UHY1)

| Molecule | binding [3] | binding [4] | binding [5] | binding [6] | other results |
| --- | --- | --- | --- | --- | --- |
| L1-encoded ORF1 protein (open-reading frame 1), endogenous in MCF-7 (from UniProt Q9UN81 1-338) | – | – | – | – | binding [1]: binds; binding [2]: binds |
| YBX1, endogenous in HEK293T (from UniProt P67809 1-324) | binds | binds | – | – | – |
| G3BP1, endogenous in HEK293T (from UniProt Q13283 1-466) | binds | binds | – | – | – |
| UPF1, endogenous in HEK293T (protein, UniProt Q92900 1-1129) MSVEAYGPSSQTLTFLDTEEAELLGADTQGSEFEFTDFTLPSQTQTPPGGPGGPGGGGAGGPGGAGAGAAAGQLDAQVGPEGILQNGAVDDSVAKTSQLLAELNFEEDEEDTYYTKDLPIHACSYCGIHDPACVVYCNTSKKWFCNGRGNTSGSHIVNHLVRAKCKEVTLHKDGPLGETVLECYNCGCRNVFLLGFIPAKADSVVVLLCRQPCASQSSLKDINWDSSQWQPLIQDRCFLSWLVKIPSEQEQLRARQITAQQINKLEELWKENPSATLEDLEKPGVDEEPQHVLLRYEDAYQYQNIFGPLVKLEADYDKKLKESQTQDNITVRWDLGLNKKRIAYFTLPKTDSGNEDLVIIWLRDMRLMQGDEICLRYKGDLAPLWKGIGHVIKVPDNYGDEIAIELRSSVGAPVEVTHNFQVDFVWKSTSFDRMQSALKTFAVDETSVSGYIYHKLLGHEVEDVIIKCQLPKRFTAQGLPDLNHSQVYAVKTVLQRPLSLIQGPPGTGKTVTSATIVYHLARQGNGPVLVCAPSNIAVDQLTEKIHQTGLKVVRLCAKSREAIDSPVSFLALHNQIRNMDSMPELQKLQQLKDETGELSSADEKRYRALKRTAERELLMNADVICCTCVGAGDPRLAKMQFRSILIDESTQATEPECMVPVVLGAKQLILVGDHCQLGPVVMCKKAAKAGLSQSLFERLVVLGIRPIRLQVQYRMHPALSAFPSNIFYEGSLQNGVTAADRVKKGFDFQWPQPDKPMFFYVTQGQEEIASSGTSYLNRTEAANVEKITTKLLKAGAKPDQIGIITPYEGQRSYLVQYMQFSGSLHTKLYQEVEIASVDAFQGREKDFIILSCVRANEHQGIGFLNDPRRLNVALTRARYGVIIVGNPKALSKQPLWNHLLNYYKEQKVLVEGPLNNLRESLMQFSKPRKLVNTINPGARFMTTAMYDAREAIIPGSVYDRSSQGRPSSMYFQTHDQIGMISAGPSHVAAMNIPIPFNLVMPPMPPPGYFGQANGPAAGRGTPKGKTGRGGRQKNRFGLPGPSQTNLPNSQASQDVASQPFSQGALTQGYISMSQPSQMSQPGLSQPELSQDSYLGDEFKSQIDVALSQDSTYQGERAYQHGGVTGLSQY | – | – | binds | binds | – |
| MOV10, endogenous in HEK293T (protein, UniProt Q9HCE1 1-1003) MPSKFSCRQLREAGQCFESFLVVRGLDMETDRERLRTIYNRDFKISFGTPAPGFSSMLYGMKIANLAYVTKTRVRFFRLDRWADVRFPEKRRMKLGSDISKHHKSLLAKIFYDRAEYLHGKHGVDVEVQGPHEARDGQLLIRLDLNRKEVLTLRLRNGGTQSVTLTHLFPLCRTPQFAFYNEDQELPCPLGPGECYELHVHCKTSFVGYFPATVLWELLGPGESGSEGAGTFYIARFLAAVAHSPLAAQLKPMTPFKRTRITGNPVVTNRIEEGERPDRAKGYDLELSMALGTYYPPPRLRQLLPMLLQGTSIFTAPKEIAEIKAQLETALKWRNYEVKLRLLLHLEELQMEHDIRHYDLESVPMTWDPVDQNPRLLTLEVPGVTESRPSVLRGDHLFALLSSETHQEDPITYKGFVHKVELDRVKLSFSMSLLSRFVDGLTFKVNFTFNRQPLRVQHRALELTGRWLLWPMLFPVAPRDVPLLPSDVKLKLYDRSLESNPEQLQAMRHIVTGTTRPAPYIIFGPPGTGKTVTLVEAIKQVVKHLPKAHILACAPSNSGADLLCQRLRVHLPSSIYRLLAPSRDIRMVPEDIKPCCNWDAKKGEYVFPAKKKLQEYRVLITTLITAGRLVSAQFPIDHFTHIFIDEAGHCMEPESLVAIAGLMEVKETGDPGGQLVLAGDPRQLGPVLRSPLTQKHGLGYSLLERLLTYNSLYKKGPDGYDPQFITKLLRNYRSHPTILDIPNQLYYEGELQACADVVDRERFCRWAGLPRQGFPIIFHGVMGKDEREGNSPSFFNPEEAATVTSYLKLLLAPSSKKGKARLSPRSVGVISPYRKQVEKIRYCITKLDRELRGLDDIKDLKVGSVEEFQGQERSVILISTVRSSQSFVQLDLDFNLGFLKNPKRFNVAVTRAKALLIIVGNPLLLGHDPDWKVFLEFCKENGGYTGCPFPAKLDLQQGQNLLQGLSKLSPSTSGPHSHDYLPQEREGEGGLSLQVEPEWRNEL | – | – | binds | binds | – |
| NRBP2-Myc (wild-type NRBP2) expressed in HEK293T cells (protein, UniProt Q9NSY0 1-501) MAAPEPAPRRAREREREREDESEDESDILEESPCGRWQKRREQVNQGNMPGLQSTFLAMDTEEGVEVVWNELHFGDRKAFAAHEEKIQTVFEQLVLVDHPNIVKLHKYWLDTSEACARVIFITEYVSSGSLKQFLKKTKKNHKAMNARAWKRWCTQILSALSFLHACSPPIIHGNLTSDTIFIQHNGLIKIGSVWHRIFSNALPDDLRSPIRAEREELRNLHFFPPEYGEVADGTAVDIFSFGMCALEMAVLEIQTNGDTRVTEEAIARARHSLSDPNMREFILCCLARDPARRPSAHSLLFHRVLFEVHSLKLLAAHCFIQHQYLMPENVVEEKTKAMDLHAVLAELPRPRRPPLQWRYSEVSFMELDKFLEDVRNGIYPLMNFAATRPLGLPRVLAPPPEEVQKAKTPTPEPFDSETRKVIQMQCNLERSEDKARWHLTLLLVLEDRLHRQLTYDLLPTDSAQDLASELVHYGFLHEDDRMKLAAFLESTFLKYRGTQA | – | – | – | – | binding [7]: binds |
